The results are deposited in PubChem (AID1053133; Broad Institute, 2014).

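Vaccinia-infected cells with a two-color viral stage reporter; Venus fluorescence read on a plate reader; the cell line is not named here; timing not stated here.
The test concentration is not given here.
Percent change in Venus reporter signal; lower (more negative) values mean stronger inhibition of that viral stage.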

Values are in %.
How 0% and 100% were set is not given here.
Common to all entries: measured here: Venus reporter, other viral stage.
Part of the compounds only, not a random draw; the main read-out is not listed here.

Compound	activity change (Venus) (%)
Cc1ccc(S(=O)(=O)Nc2cccc3c2O[C@@H](CN(C)Cc2ccc(C(F)(F)F)cc2)[C@@H](C)CN([C@H](C)CO)C3=O)cc1	-57.14
C[C@@H]1CN([C@@H](C)CO)C(=O)c2cc(NS(=O)(=O)c3ccc(F)cc3)ccc2O[C@@H](C)CCCCO[C@H]1CN(C)C(=O)CCC(F)(F)F	-29.59
O=C(C1CCC1)N1CC(=O)N2[C@H](CO)[C@@H](c3ccc(-c4ccccc4F)cc3)[C@H]2C1	-31.6
COc1ccc(C#Cc2ccc3c(c2)O[C@@H](CN(C)C(=O)c2ccccn2)[C@@H](C)CN([C@H](C)CO)S3(=O)=O)cc1	-45.19
C[C@H]1CN([C@@H](C)CO)C(=O)c2cccc(NC(=O)Nc3ccc(C(F)(F)F)cc3)c2O[C@@H]1CN(C)C(=O)NC1CCCCC1	-30.86
C[C@H]1CCCCO[C@@H](CN(C)Cc2ccccc2)[C@@H](C)CN([C@@H](C)CO)C(=O)c2cc(NC(=O)Nc3ccc(F)cc3)ccc2O1	-63.55
C[C@@H]1CN([C@@H](C)CO)S(=O)(=O)c2ccc(C#Cc3ccccc3F)cc2O[C@H]1CN(C)C	-53.02
COc1ccccc1-c1ccc2c(c1)O[C@H](CN(C)S(=O)(=O)c1ccccc1)[C@H](C)CN([C@@H](C)CO)S2(=O)=O	-30.14
COc1ccc2c3c(n(C)c2c1)[C@H](CO)NCC31CN(Cc2ccc(F)cc2)C1	-27.09
C[C@H]1CCCCO[C@@H](CN(C)C(=O)CCC(F)(F)F)[C@@H](C)CN([C@@H](C)CO)C(=O)c2cc(NC(=O)c3ccccc3)ccc2O1	-50.62
C[C@H](CO)N1C[C@H](C)[C@H](CN(C)S(=O)(=O)c2ccc(F)cc2)Oc2ncc(-c3cccc(C(F)(F)F)c3)cc2C1=O	-61.58
O=C(Nc1cccc(F)c1)N1CCCCN2[C@H](CO)[C@@H](c3ccc(-c4ccccc4F)cc3)[C@H]2C1	-62.22
COc1ccc2c3c(n(C)c2c1)[C@@H](CO)N(C(=O)C1CCCC1)CC31CCN(Cc2cccc(F)c2)CC1	-63.1
CC(C)CC#Cc1ccc([C@@H]2[C@H]3CN(C(=O)Nc4ccc(F)cc4)CC(=O)N3[C@H]2CO)cc1	-46.08
CC(C)CC#Cc1ccc([C@H]2[C@@H](CO)N3C(=O)CN(C(=O)Nc4ccc(F)cc4)C[C@@H]23)cc1	-37.23
Cc1ccc(S(=O)(=O)N(C)C[C@@H]2Oc3cc(Br)ccc3S(=O)(=O)N([C@H](C)CO)C[C@H]2C)cc1	-47.57
Cc1noc(C)c1S(=O)(=O)Nc1ccc2c(c1)C(=O)N([C@H](C)CO)C[C@@H](C)[C@H](CN(C)C(=O)Nc1ccc(C(F)(F)F)cc1)OCCCC[C@@H](C)O2	-42.58
C[C@H](CO)N1C[C@H](C)[C@H](CN(C)C(=O)Nc2ccccc2)Oc2ccc(NC(=O)C3CCCCC3)cc2CC1=O	-18.18
O=C(NC1CCCCC1)N1CC(=O)N2[C@H](CO)[C@@H](c3ccc(-c4cccc(F)c4)cc3)[C@H]2C1	-46.29
C[C@H]1CN([C@@H](C)CO)C(=O)Cc2cc(NC(=O)Cc3ccccc3)ccc2O[C@H]1CN(C)Cc1ccc(Oc2ccccc2)cc1	-43.26
C[C@H]1CN([C@@H](C)CO)C(=O)c2cc(NC(=O)Nc3ccc(C(F)(F)F)cc3)ccc2O[C@@H]1CN(C)Cc1ccc(Cl)c(Cl)c1	-46.74
COc1ccc(S(=O)(=O)Nc2ccc3c(c2)C(=O)N([C@@H](C)CO)C[C@@H](C)[C@H](CN(C)S(=O)(=O)c2c(C)noc2C)OCCCC[C@@H](C)O3)cc1	-30.42
COc1ccccc1-c1cccc(-c2nc(C(=O)Nc3nccs3)cc3c2[C@@H](CCO)N(C(C)=O)C3)c1	-16.89
COc1ccc2c3c(n(C)c2c1)[C@@H](CO)N(C(C)=O)CC31CCN(S(=O)(=O)c2ccccc2)CC1	-31.52
CO[C@@H]1CN(C)C(=O)c2cc(NC(=O)c3nc4ccccc4s3)ccc2OC[C@H](C)N(Cc2cccnc2)C[C@@H]1C	-36.61
COc1ccc(NC(=O)N2C[C@@H]3N[C@H](C2)C3c2ccc(-c3cccnc3)cc2)cc1 (stereo not given in full)	-65.42
COc1cccc(-c2ccc([C@@H]3[C@@H](CO)N4C(=O)CN(C(=O)C5CCOCC5)C[C@@H]34)cc2)c1	-21.97
COc1ccccc1NC(=O)N1CC[C@H]2[C@@H]1c1cc(-c3ccccc3)ccc1N(C)[C@H]2CO	-35.52
C[C@H](CO)N1C[C@H](C)[C@@H](CN(C)C(=O)Nc2cccc(C(F)(F)F)c2)OCc2ccccc2-c2c(n(C)c3ccccc23)C1=O	-54.54
COc1ccccc1C#Cc1ccc2c(c1)O[C@@H](CN(C)Cc1ccncc1)[C@@H](C)CN([C@H](C)CO)S2(=O)=O	-34.14
COc1cccc(NC(=O)N2CC[C@@H]3[C@@H](CO)N(C)c4ccc(-c5ccccc5)cc4[C@@H]32)c1	-26.6
C[C@H](CO)N1C[C@H](C)[C@H](CN(C)C(=O)Nc2ccc(C(F)(F)F)cc2)Oc2c(NS(=O)(=O)c3ccc(F)cc3)cccc2C1=O	-43.69
CC(C)C#Cc1ccc2c(c1)O[C@@H](CN(C)C(=O)c1cccc(F)c1)[C@@H](C)CN([C@@H](C)CO)S2(=O)=O	-42.82
O=C(C[C@@H]1CC[C@@H]2[C@H](COC[C@H](O)CN2Cc2cc(F)ccc2F)O1)NCc1ccc(Oc2ccccc2)cc1	-81.19
C[C@@H]1CN([C@@H](C)CO)S(=O)(=O)c2ccc(C#Cc3ccccc3)cc2O[C@@H]1CN(C)C(=O)CN(C)C	-69.63
O=C(Nc1ccc(F)cc1)N1CCCCN2[C@H](C1)[C@@H](c1ccc(-c3cccc(F)c3)cc1)[C@@H]2CO	-57.89
C[C@@H]1CN([C@H](C)CO)C(=O)Cc2cc(NC(=O)Nc3ccc(C(F)(F)F)cc3)ccc2O[C@H]1CN(C)Cc1ccccc1	-26.59
COc1cccc(S(=O)(=O)N2CCC3(CC2)CN[C@@H](CO)c2c3c3ccc(OC)cc3n2C)c1	-27.85
C[C@H](CO)N1C[C@H](C)[C@H](CN(C)CC2CCCCC2)Oc2c(NC(=O)Nc3ccc(F)cc3)cccc2C1=O	-28.75
COc1ccc(NC(=O)Nc2ccc3c(c2)C(=O)N([C@@H](C)CO)C[C@@H](C)[C@H](CN(C)CC2CCCCC2)OCCCC[C@@H](C)O3)cc1	-38.95
O=C(c1cnccn1)N1CC(=O)N2[C@H](C1)[C@H](c1ccc(/C=C/c3ccccc3)cc1)[C@@H]2CO	-40.92
CO[C@H](CN(C)C(=O)Nc1ccc(C(F)(F)F)cc1)[C@@H](C)CN(Cc1ccccc1Cl)[C@@H](C)CO	-30.64
COc1ccc(CN(C)C[C@H]2OCCCC[C@@H](C)Oc3ccc(NS(=O)(=O)c4cccs4)cc3C(=O)N([C@@H](C)CO)C[C@H]2C)cc1	-43.4
C[C@H]1CN([C@@H](C)CO)S(=O)(=O)c2ccc(C#CCC3CCCC3)cc2O[C@H]1CN(C)C(=O)CC1CC1	-56.79
C/C=C/c1ccc2c(c1)O[C@@H](CN(C)S(=O)(=O)c1ccc(C)cc1)[C@@H](C)CN([C@H](C)CO)S2(=O)=O	-24.09
CCC(=O)N(C)C[C@H]1Oc2cc(C#CCC3CCCC3)ccc2S(=O)(=O)N([C@@H](C)CO)C[C@@H]1C	-42.65
CC(C)CC#Cc1ccc([C@@H]2[C@@H](CO)N3C(=O)CN(C(=O)Nc4cc(F)ccc4F)C[C@@H]23)cc1	-39.94

Some entries from above, unchanged:

C[C@H]1CN([C@@H](C)CO)C(=O)c2cccc(NC(=O)Nc3ccc(C(F)(F)F)cc3)c2O[C@@H]1CN(C)C(=O)NC1CCCCC1 read activity change (Venus) -30.86%.
C[C@H](CO)N1C[C@H](C)[C@@H](CN(C)C(=O)Nc2cccc(C(F)(F)F)c2)OCc2ccccc2-c2c(n(C)c3ccccc23)C1=O read activity change (Venus) -54.54%.
C[C@H]1CCCCO[C@@H](CN(C)C(=O)CCC(F)(F)F)[C@@H](C)CN([C@@H](C)CO)C(=O)c2cc(NC(=O)c3ccccc3)ccc2O1 read activity change (Venus) -50.62%.
C[C@H](CO)N1C[C@H](C)[C@H](CN(C)CC2CCCCC2)Oc2c(NC(=O)Nc3ccc(F)cc3)cccc2C1=O read activity change (Venus) -28.75%.
COc1cccc(S(=O)(=O)N2CCC3(CC2)CN[C@@H](CO)c2c3c3ccc(OC)cc3n2C)c1 read activity change (Venus) -27.85%.